Test results from publication PMC7491322.

By UniProt entry, the sequences of proteins in these tests, tags left out. Residues count along the entry.
UniProt Q9Y7M4: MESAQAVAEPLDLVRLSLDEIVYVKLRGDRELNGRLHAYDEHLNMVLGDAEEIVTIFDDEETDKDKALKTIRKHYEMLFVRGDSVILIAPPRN
UniProt O42978, residues 2-80: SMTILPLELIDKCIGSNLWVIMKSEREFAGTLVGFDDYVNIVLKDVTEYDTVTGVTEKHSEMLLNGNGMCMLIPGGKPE

Target: S. pombe Lsm3 (S. pombe) (UniProt Q9Y7M4)
Assay: co-purification (affinity and anion-exchange chromatography, chains confirmed by electrospray mass spectrometry); wild-type Lsm1–7 coexpressed in E. coli; IMAC, glutathione agarose (GST on Lsm3), TEV protease, HiTrapQ

binding: binds
Substance: S. pombe Lsm5 (from UniProt O42978 2-80)

Results are given in words; binding and its absence hold for the method and conditions named. Binding seen in cells or lysates may run through a third protein. Here binding means that the protein was enriched with, or labelled near, the bait; the list need not be complete.
